# Data taken from PubChem BioAssay AID588855 (National Center for Advancing Translational Sciences (NCATS), 2011).
# Only a part is listed here, and it is no random draw. Records with an inconclusive call do not appear. Calls of active or inactive are those of the source. Calls come from the whole dose curve; as a rule, active = well fitted inhibition curve with a large enough effect; inconclusive = small, poorly fitted or top-dose-only effect; inactive = no such curve, though single readings can be large or run the other way.
# Assay: qHTS for Inhibitors of TGF-b; note: nearly all actives have a fitted effect of over 65% in size
# Settings: HepG2 CAGA-GFP TGF-b/SMAD3 reporter, GFP fluorescence, 18 h; TGF-beta stimulated, 500 pg/mL final
# Text: TGF-b is a main component in the TGF-b signaling pathway which plays diverse roles in cellular and development pathways. TGF-b is the mediated by the transcription factors Smads. Although the Smad-dependent pathway is the primary canonical TGF-b signaling node, TGF-b1 can also activate alternative signaling pathways, including those involving MAPK (ERK, JNK and p38). This interaction may mediate or enhance Smad-dependent responses, or can exert Smad-independent effects. The complexity of this signaling cascade allows the TGF-b superfamily to perform unique, overlapping or redundant functions. […] We aim to identify Smad3-small molecule antagonists using a quantitative high throughput screening (qHTS) approach. […]
# Suspensions of trypsinized HEPG2 CAGA-GFP cells were dispensed into white, tissue culture-treated, solid 1536-well plates at 5uL/well (1000 cells/well final concentration) in DMEM medium supplemented with 1% FBS. […] The plates were measured on an Acumen eX3 Explorer plate reader for GFP fluorescence (ex488/em500-530). GFP values were calculated by determining the mean GFP fluorescence of individual cells, and compiling these values for each well to determine a total well GFP signal. The %Activity was determined from the corrected fluorescence values. […]
# Concentration-response curves were fitted to the signals arising from the resulting fluorescence. […]
# Potency is the fitted concentration of half-maximal effect.
row,SMILES,Potency
1,COc1c(O)cc2c(c1OC)-c1ccc(SC)c(=O)cc1C(NC(C)=O)CC2 (stereo unspecified),active: 199 nM
